PubChem BioAssay AID1259254 – NCATS – 2017
Shown is one part, drawn at random, of about 59,000 reagents tested. About 1,550 of all reagents (2.6%) count as active. 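G2 share is only a proxy for re-replication; each gene was hit by three separate siRNAs, and active genes were retested.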 The raw values are shown without normalisation. Unmarked entries are inactive. The numbers tell different reagents against one gene apart. Not given: the amount of reagent.

Screen: 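Gene knock-downs that lead to re-replication, shown by excess G2 DNA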 (primary screen)
Cell system: human HCT116 colorectal cancer cells
Reagent: single siRNA against human genes
Timing: 3 days
Measurement: 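Nuclei stained with Hoechst and imaged; cell-cycle phase assigned by DNA content; G2 share scaled per plate, non-targeting siRNA 0%, GMNN siRNA 100%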
Scale: G2 robust z-score and G2 cells, % of GMNN control: higher = more G2 cells, more excess DNA replication; raw share of cells in G2: higher = larger share of cells with G2 DNA content
Hit rule: 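An siRNA counts as active if its G2 robust z-score lies at least 5 MADs above the screen median; here such calls match roughly 38% of GMNN control or more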

gene | siRNA no. | G2 robust z-score | G2 cells, % of GMNN control | raw share of cells in G2 (%)
COL6A6 (collagen type VI alpha 6 chain) | 1 | 1.07 | 10.5 | 8.13
COL6A6 (collagen type VI alpha 6 chain) | 2 | 0.739 | 8.17 | 5.69
COL6A6 (collagen type VI alpha 6 chain) | 3 | -0.519 | -0.685 | 2.33
OLA1 (Obg like ATPase 1) | 1 | -0.871 | -3.16 | 4.73
OLA1 (Obg like ATPase 1) | 2 | -0.979 | -3.92 | 2.71
OLA1 (Obg like ATPase 1) | 3 | -0.636 | -1.51 | 3.69
BMF (Bcl2 modifying factor) | 1 | -0.942 | -3.66 | 2.53
BMF (Bcl2 modifying factor) | 2 | -0.111 | 2.19 | 3.69
BMF (Bcl2 modifying factor) | 3 | -0.157 | 1.86 | 3.52
ZNF217 (zinc finger protein 217) | 1 | -0.913 | -3.46 | 4.14
ZNF217 (zinc finger protein 217) | 2 | -0.271 | 1.06 | 4.83
ZNF217 (zinc finger protein 217) | 3 | -1.25 | -5.85 | 2.08
OMD (osteomodulin) | 1 | 0.93 | 9.51 | 8.8
OMD (osteomodulin) | 2 | -0.554 | -0.933 | 2.88
OMD (osteomodulin) | 3 | -0.642 | -1.55 | 4.12
ZNF317 (zinc finger protein 317) | 1 | -0.766 | -2.43 | 1.94
ZNF317 (zinc finger protein 317) | 2 | -1.28 | -6.04 | 3.18
ZNF317 (zinc finger protein 317) | 3 | 0.474 | 6.31 | 5.61
NMB (neuromedin B) | 1 | -0.837 | -2.92 | 2.23
NMB (neuromedin B) | 2 | 2.55 | 20.9 | 13.4
NMB (neuromedin B) | 3 | -1.51 | -7.68 | 2.43
POLR2F (RNA polymerase II, I and III subunit F) | 1 | 2.23 | 18.6 | 11.8
POLR2F (RNA polymerase II, I and III subunit F) | 2 | 0.611 | 7.26 | 7.48
POLR2F (RNA polymerase II, I and III subunit F) | 3 | 2.98 | 23.9 | 12.1
TOLLIP (toll interacting protein) | 1 | -0.549 | -0.894 | 3.28
TOLLIP (toll interacting protein) | 2 | 0.856 | 8.99 | 8.06
TOLLIP (toll interacting protein) | 3 | -0.18 | 1.7 | 3.75
ZNF697 (zinc finger protein 697) | 1 | -0.23 | 1.35 | 3.56
ZNF697 (zinc finger protein 697) | 2 | -0.188 | 1.65 | 3.74
ZNF697 (zinc finger protein 697) | 3 | 1.86 | 16.1 | 9.16
AK4P3 (adenylate kinase 4 pseudogene 3) | 1 | 0.434 | 6.02 | 5.46
AK4P3 (adenylate kinase 4 pseudogene 3) | 2 | -0.389 | 0.231 | 3.12
AK4P3 (adenylate kinase 4 pseudogene 3) | 3 | -1.06 | -4.53 | 2.07
GATA1 (GATA binding protein 1) | 1 | 0.362 | 5.51 | 7.43
GATA1 (GATA binding protein 1) | 2 | 1.29 | 12.1 | 8.25
GATA1 (GATA binding protein 1) | 3 | -1.16 | -5.19 | 1.22
IL31RA (interleukin 31 receptor A) | 1 | 0.351 | 5.44 | 6.69
IL31RA (interleukin 31 receptor A) | 2 | -0.791 | -2.6 | 3.61
IL31RA (interleukin 31 receptor A) | 3 | 0.131 | 3.89 | 7.81
FEZF2 (FEZ family zinc finger 2) | 1 | 0.218 | 4.5 | 4.38
FEZF2 (FEZ family zinc finger 2) | 2 | -1.2 | -5.48 | 3.43
FEZF2 (FEZ family zinc finger 2) | 3 | -1.16 | -5.2 | 2
LINC00847 (long independently transcribed non-coding RNA 847) | 1 | -0.753 | -2.33 | 2.32
LINC00847 (long independently transcribed non-coding RNA 847) | 2 | -0.719 | -2.09 | 3.27
LINC00847 (long independently transcribed non-coding RNA 847) | 3 | 0.266 | 4.84 | 4.85
SEC14L2 (SEC14 like lipid binding 2) | 1 | 2.88 | 23.2 | 11.9
SEC14L2 (SEC14 like lipid binding 2) | 2 | -0.569 | -1.04 | 3.51
SEC14L2 (SEC14 like lipid binding 2) | 3 | -0.207 | 1.51 | 6.97

8 successive records from above:
gene | siRNA no. | G2 robust z-score | G2 cells, % of GMNN control | raw share of cells in G2 (%)
OLA1 (Obg like ATPase 1) | 2 | -0.979 | -3.92 | 2.71
OLA1 (Obg like ATPase 1) | 3 | -0.636 | -1.51 | 3.69
BMF (Bcl2 modifying factor) | 1 | -0.942 | -3.66 | 2.53
BMF (Bcl2 modifying factor) | 2 | -0.111 | 2.19 | 3.69
BMF (Bcl2 modifying factor) | 3 | -0.157 | 1.86 | 3.52
ZNF217 (zinc finger protein 217) | 1 | -0.913 | -3.46 | 4.14
ZNF217 (zinc finger protein 217) | 2 | -0.271 | 1.06 | 4.83
ZNF217 (zinc finger protein 217) | 3 | -1.25 | -5.85 | 2.08
